# Screening data

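Genome-wide siRNA knockdown in TC32 Ewing sarcoma cells, comparing luciferase light from an NR0B1-promoter reporter with a CMV-promoter reporter 48 hours after transfection. Each siRNA was applied at 20 nM. A z-score of the log NR0B1-over-CMV signal, less the median of siRNAs with the same seed; more negative means a stronger specific loss of the NR0B1 reporter.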

This is part of the screen; most of the strongest results are not listed here. Sequences are the guide (antisense) strand, without overhang.

* UUAUCGUCCACAGUUCCAC against RNF168 : seed-corrected z-score -0.07685
* AGCUGUACAAUCUUUACUC against TNKS2 : seed-corrected z-score 1.09
* UACUUGAGCACAGUGGUCG against DRC7 : seed-corrected z-score 0.0958
* UUCCUAUAAGGCGCAUUCC against VPS13C : seed-corrected z-score -0.6694
* UAAGCAGGCCUUGGGUACC against POLR2J2 : seed-corrected z-score -0.2681
* UCCUUGCUCACUCCAAACC against RHBDF1 : seed-corrected z-score -0.9259
* AUUACAUCUAGACACACAG against UBE2HP1 : seed-corrected z-score -0.6471
* UUUGCCUUCAAUAUUCCUC against IRF2 : seed-corrected z-score -0.6956
* UCAAUUGUCCGAUUUCGCC against NDUFS2 : seed-corrected z-score -0.08285
* UAAUGACUAGUGUAGAUGG against EMP1 : seed-corrected z-score 1.314
* UUUGUGACACUCGCAAGCC against DMRTC2 : seed-corrected z-score -0.23
* CAACUCUUCAUCACCACGG against H2AFV : seed-corrected z-score -0.2466
* UGAGGAACUAGCACGACUG against SNX9 : seed-corrected z-score -0.6046
* AAUGAUUCUGCGGGCAGUC against CXXC4 : seed-corrected z-score 1.143
* UUUCAUGAUUUGUACAUGG against FAM186B : seed-corrected z-score 0.04922
* AUAGAGGUCGCUCAGGUUC against LRG1 : seed-corrected z-score -0.3068
* UAUACUUAAACUUAUCUGG against EIF2B1 : seed-corrected z-score -0.7085
* AAUUUGGACACCUAGUUCG against SNF8 : seed-corrected z-score 0.4234
* UUCUCGUACGCAAUGUUGC against FHAD1 : seed-corrected z-score 0.06506
* AAAAGAACCUCUUUCAUAG against MDM2 : seed-corrected z-score -1.55
* UUAAAUAAUAGAUCCCACA against HMGB3P19 : seed-corrected z-score -1.635
* UCCCAUUGAAUAGAUCUCC against SRPK1 : seed-corrected z-score -0.01546
* UCUAUACCUAAUUCUGAUC against ZHX1 : seed-corrected z-score 0.001652
* UGCGGAACCGAGAUGAUGU against ESR1 : seed-corrected z-score -0.07924
* UCCCUUUGCAGUGAUCCUC against NECAP2 : seed-corrected z-score -0.8187
* UUUGUUUCCAUGGAGUUUC against SPOCK2 : seed-corrected z-score -0.4463
* AGUCCACACACGUUGAUGC against WFIKKN1 : seed-corrected z-score -0.2355
* UUUCUUAAUGGCCUUGUCU against RPS26P50 : seed-corrected z-score 2.967
* UUCUUGUUUAUAAUUGAGC against SEMG2 : seed-corrected z-score 0.05562
* UCAGGUCAUAGUACGGCUC against SSTR2 : seed-corrected z-score 0.2229
* UUCGGUGUACGUAUUCUUC against DDX43 : seed-corrected z-score 0.41
* UCUGGGUUUAGAAACAGCU against DOK7 : seed-corrected z-score 0.09056
* UCACCAACACCAUCUAUCC against CD160 : seed-corrected z-score 0.1617
* UUUCGGGUAAUGCACCUUG against CES5A : seed-corrected z-score 0.02975
* UAAUACAUCCCUGAUUUUC against ZNF140 : seed-corrected z-score 0.6247
* UAACUUGGAGGGUCGGCUG against TANGO2 : seed-corrected z-score 0.1834
* UUGCAGAUCAGGUAUUUGC against ANKK1 : seed-corrected z-score 0.1158
* UAACUUGAUAGCUUCACUG against PSMA8 : seed-corrected z-score -0.07577
* UCGGUUUGUAGCAAUACUG against RBMS1 : seed-corrected z-score -0.8258
* UUAAGGACAAACGACAGUU against TP53TG3 : seed-corrected z-score 1.273
* UACUCGAUAUAAUAGUCUC against TRPA1 : seed-corrected z-score -0.6531

For reference, 4 entries once more:

{"sequence": "UUCUCGUACGCAAUGUUGC", "gene": "FHAD1", "seed-corrected z-score": "0.06506"}
{"sequence": "AGCUGUACAAUCUUUACUC", "gene": "TNKS2", "seed-corrected z-score": "1.09"}
{"sequence": "UAAGCAGGCCUUGGGUACC", "gene": "POLR2J2", "seed-corrected z-score": "-0.2681"}
{"sequence": "UCUGGGUUUAGAAACAGCU", "gene": "DOK7", "seed-corrected z-score": "0.09056"}

The results are deposited in PubChem (AID1159506; NCATS, 2015).